Measurements from the supplement of paper PMC10849652.
Some of the results follow. Residues, ends and D or L forms follow the SMILES beside them. *: point of attachment. Cbz = O=C(OCc1ccccc1)*

Legend:
Assay in all cases: log2 fold change, soluble protein after heating vs DMSO (PISA); higher = thermal stabilisation; K562 cells, 10 uM, 30 min; active = over 0.2 and 3.5 SD of the protein, either way, in both replicates (recomputed)
[1] = compound: C/C(=N\NC(=O)C1=CC(=CC=C1)S(=O)(=O)N2CCOCC2)/C3=C(C=CC(=C3)Cl)O
Procedure, shortened: (§1)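 For each measurement, 10 μM compound was applied for 30 min to K562 cells at 2×10^6 cells/mL. Aliquots were heated for 3 min across 48°C-58°C, pooled, and extracted in PBS with 0.5% NP-40 at 4°C; the supernatant after 21,000xg for 90 min was soluble protein. This was quantified by TMTpro 16plex LC-MS/MS with channel sums equalised, and thermal stability was reported relative to control samples from duplicates, on a log2 fold-change scale.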

[2] = compound: C1=CC(=C(C=C1Cl)C2=NC3=NC=CN=C3C(=N2)NC4=CC=NC=C4)F
Procedure, shortened: as §1

[3] = compound: C1=CC2=C(C=CC(=C2)/C=C\3/C(=O)NC(=NCC4=CC=CS4)S3)N=C1
Procedure, shortened: as §1

[4] = compound: C1=CC2=NC=CN=C2C=C1/C=C/3\C(=O)NC(=O)S3
Procedure, shortened: as §1

[5] = compound: C1=CC=C(C=C1)C2=NC(=C(N2)C3=CC=NC=C3)C4=CC(=C(C=C4)Cl)O
Procedure, shortened: as §1

[6] = compound: C1=CC=C2C(=C1)C3=NNC4=CC=CC(=C43)C2=O
Procedure, shortened: as §1

[7] = compound: C1CCN(C1)C(=O)NC2=CC=CC(=C2)NC3=NC=C(C(=N3)NCCC4=CN=CN4)Br
Procedure, shortened: as §1

[8] = compound: C1CN(CCC1(CC2=CC=C(C=C2)Cl)N)C3=NC=NC4=C3C=CN4
Procedure, shortened: as §1

[9] = compound: C1COCCN1CCN2C3=CC=CC=C3N=C2NC(=O)C4=CC(=CC=C4)[N+](=O)[O-] [IRAK-1-4 Inhibitor I]
Procedure, shortened: as §1

[10] = compound: C=CC(=O)N1CCC[C@@H](n2nc(-c3ccc(Oc4ccccc4)cc3)c3c(N)ncnc32)C1 [ibrutinib]
Procedure, shortened: as §1

[11] = compound: CC(=O)c1cnc2ccc(-c3cc(Cl)c(O)c(Cl)c3)nc2c1N[C@H]1CC[C@H](CN(C)C)CC1
Procedure, shortened: as §1

[12] = compound: CC(C)(C)Cn1c(N)nc2ccc(-c3[nH]c(C(C)(C)C)nc3-c3ccc(F)cc3)nc21 [ralimetinib]
Procedure, shortened: as §1

[13] = compound: CC(C)(O)CC(=O)NCCn1ccc2ncnc(Nc3ccc(Oc4cccc(C(F)(F)F)c4)c(Cl)c3)c21
Procedure, shortened: as §1

[14] = compound: CC(C)C[C@@H](C=O)NC(=O)[C@H](CC(C)C)NC(=O)[C@H](CC(C)C)NC(=O)OCc1ccccc1
Procedure, shortened: as §1

[15] = compound: CC(C)N(C[C@H]1O[C@@H](n2cnc3c(N)ncnc32)[C@H](O)[C@@H]1O)[C@H]1C[C@@H](CCc2nc3cc(C(C)(C)C)ccc3[nH]2)C1 [pinometostat]
Procedure, shortened: as §1

[16] = compound: CC1=C(C(CC(=O)N1)C2=CC=C(C=C2)C(F)(F)F)C(=O)NC3=C(C=C4C(=C3)C=NN4)F
Procedure, shortened: as §1

[17] = compound: CC1=C(C2=C(C=C1)C(=O)C3=CC=CC=C3N2CCCN)C
Procedure, shortened: as §1

[18] = compound: C#Cc1cccc(Nc2ncnc3cc(OCCOC)c(OCCOC)cc23)c1 [erlotinib]
Procedure, shortened: as §1

[19] = compound: C1=CC(=CC=C1C2=NC3=C(N2)C=C(C=C3)C(=O)N)OC4=CC=C(C=C4)Cl
Procedure, shortened: as §1

[20] = compound: CC(C)C1=C2N=C(C=C(N2N=C1)NCC3=CC=CC=C3)NCCCCCCN
Procedure, shortened: as §1

Measured: log2 fold change

PRKRA (UniProt O75569)
inactive: [1] -0.076 | [2] -0.307 | [3] 0.012 | [4] 0.033 | [5] -0.134 | [6] -0.015 | [7] -0.037 | [8] -0.081 | [9] -0.205 | [10] 0.07 | [11] 0.143 | [12] 0.207 | [13] 0.188 | [14] 0.111 | [15] 0.308 | [16] 0.051 | [17] -0.399

PPP1R13L (UniProt Q8WUF5)
inactive: [2] -0.136 | [4] 0.083 | [7] -0.043 | [8] 0.126 | [10] 0.191 | [13] -0.112 | [16] 0.021 | [17] -0.063

PPP1R9A isoform 3 (UniProt Q9ULJ8)
inactive: [2] -0.103 | [4] 0.098 | [5] 0.137 | [9] -0.145 | [10] -0.136 | [12] -0.34 | [13] 0.08 | [14] 0.055 | [15] 0.048 | [16] -0.002

PPP2R3B (UniProt Q9Y5P8)
inactive: [1] -0.006 | [2] 0.083 | [3] -0.065 | [6] 0.028 | [7] -0.067 | [8] -0.221 | [11] 0.105 | [13] 0.159 | [16] 0.076 | [17] 0.067

PROSER1 (UniProt Q86XN7)
inactive: [5] -0.112 | [7] -0.348 | [8] -0.018 | [12] 0.022 | [14] -0.017 | [17] 0.088

PPP1R3D (UniProt O95685)
inactive: [18] 0.145 | [19] -0.097 | [4] -0.075 | [5] 0.036 | [7] 0.024 | [8] 0.016 | [9] 0.095 | [10] -0.113 | [12] 0.037 | [20] 0.116 | [14] -0.06 | [15] 0.061 | [16] -0.163 | [17] -0.204

PRPF39 (UniProt Q86UA1)
inactive: [7] -0.006 | [8] -0.044 | [17] -0.258

PRDM2 (UniProt Q13029)
inactive: [1] -0.09 | [2] -0.109 | [3] 0.058 | [5] -0.063 | [6] -0.168 | [7] -0.003 | [8] -0.116 | [9] 0.084 | [11] -0.037 | [12] 0.108 | [13] -0.011 | [14] 0.076 | [15] 0.074 | [16] -0.158 | [17] -0.177

PRC1 (UniProt O43663)
inactive: [1] 0.107 | [3] -0.159 | [6] -0.116 | [7] 0.132 | [8] -0.233 | [11] -0.189 | [17] -0.109

PRNP (UniProt P04156)
inactive: [18] -0.049 | [19] 0.098 | [4] 0.109 | [10] -0.047 | [20] 0.117

PPP1CC (UniProt F8W1A0)
inactive: [4] 0.088 | [10] -0.132

PRKX (UniProt P51817)
inactive: [18] 0.169 | [19] 0.035 | [4] 0 | [10] -0.005 | [20] -0.274

PRH1 (UniProt P02810)
inactive: [16] -0.062

PPP1R12B isoform 6 (UniProt O60237)
active: [16] -0.346
inactive: [18] 0.226 | [19] 0.001 | [4] -0.081 | [10] 0.075 | [20] -0.074

PRR14L (UniProt Q5THK1)
inactive: [1] -0.168 | [3] 0.16 | [6] -0.091 | [7] 0.166 | [8] -0.023 | [11] -0.104 | [17] 0.008

PPP2R1B (UniProt H0YDG7)
inactive: [4] -0.428 | [7] 0.273 | [8] -0.013 | [10] 0.118 | [16] 0.046 | [17] 0.027

PRELID2 (UniProt Q8N945)
inactive: [9] -0.004 | [15] 0.054

PPP1R16A (UniProt Q96I34)
inactive: [5] 0.092 | [12] 0.083 | [14] -0.331

PPP2R2A, A0A590UJJ1
inactive: [1] -0.38 | [3] 0.289 | [6] 0.019 | [11] 0.148

PPP2CB (UniProt E5RHC1)
inactive: [18] 0.027 | [19] -0.035 | [20] 0.14

PPP2R3C (UniProt Q969Q6)
inactive: [7] 0.078 | [8] 0.047 | [17] 0.064

PPTC7 (UniProt Q8NI37)
inactive: [2] -0.026 | [9] -0.051 | [13] -0.102 | [15] 0.09

PROSER3 (UniProt Q2NL68)
inactive: [18] -0.196 | [19] 0.236 | [4] -0.054 | [7] -0.022 | [8] -0.058 | [10] 0.18 | [20] -0.037 | [16] -0.038 | [17] -0.013

2 neighbouring records out of the list so far, quoted:
PPP2R2A, A0A590UJJ1
inactive: [1] -0.38 | [3] 0.289 | [6] 0.019 | [11] 0.148

PPP2CB (UniProt E5RHC1)
inactive: [18] 0.027 | [19] -0.035 | [20] 0.14

Remaining list, next part:

PRR12 (UniProt Q9ULL5)
inactive: [18] 0.072 | [19] 0.114 | [20] -0.261

PRIMPOL (UniProt Q96LW4)
inactive: [1] -0.171 | [3] -0.092 | [6] 0.25 | [7] -0.006 | [8] 0.023 | [11] -0.125 | [17] -0.119

PRR3 (UniProt P79522)
inactive: [2] -0.334 | [7] -0.042 | [8] -0.136 | [9] -0.076 | [13] 0.085 | [15] -0.002 | [17] -0.192

PRRG1 (UniProt O14668)
inactive: [5] 0.041 | [9] 0.009 | [12] -0.15 | [14] 0.046 | [15] 0.004

PRR4 (UniProt Q16378)
inactive: [1] -0.099 | [3] 0.138 | [4] -0.092 | [5] -0.004 | [6] -0.102 | [9] -0.278 | [10] 0.006 | [11] 0.044 | [12] 0.052 | [14] -0.154 | [15] 0.244 | [16] -0.118

PRR16 (UniProt Q569H4)
inactive: [18] -0.182 | [19] 0.02 | [20] -0.069
